Drawing on paper PMC10415183, this text covers binding for one molecule.

Chains of the proteins cited; added tags and fusions are not shown. Residues count along the entry.
UniProt Q9BXW4, residues 1-126: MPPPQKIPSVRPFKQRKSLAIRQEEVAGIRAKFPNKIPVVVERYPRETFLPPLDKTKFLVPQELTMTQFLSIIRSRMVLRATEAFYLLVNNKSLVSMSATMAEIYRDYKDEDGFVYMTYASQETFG

No constants are given. Whether binding was seen depends on the method and setting. Binding seen in cells or lysates may run through a third protein. Some binding calls cover weakened binding; strength is not graded here. Tags and fused reporters may be left off the sequences shown.

The target of this test is 3xFLAG-LC3C (UniProt Q9BXW4). Description: co-IP; HEK293T cells co-expressing HA-spartin and 3xFLAG–ATG8 proteins; anti-FLAG M2 affinity gel, 2 h at 4 °C; 50 mM Tris pH 8, 150 mM NaCl, 1 mM EDTA, 1% Triton X-100; blot with anti-HA and anti-FLAG.

B1: HA-spartin (protein, UniProt Q8N0X7 1-666)
chain: MEQEPQNGEPAEIKIIREAYKKAFLFVNKGLNTDELGQKEEAKNYYKQGIGHLLRGISISSKESEHTGPGWESARQMQQKMKETLQNVRTRLEILEKGLATSLQNDLQEVPKLYPEFPPKDMCEKLPEPQSFSSAPQHAEVNGNTSTPSAGAVAAPASLSLPSQSCPAEAPPAYTPQAAEGHYTVSYGTDSGEFSSVGEEFYRNHSQPPPLETLGLDADELILIPNGVQIFFVNPAGEVSAPSYPGYLRIVRFLDNSLDTVLNRPPGFLQVCDWLYPLVPDRSPVLKCTAGAYMFPDTMLQAAGCFVGVVLSSELPEDDRELFEDLLRQMSDLRLQANWNRAEEENEFQIPGRTRPSSDQLKEASGTDVKQLDQGNKDVRHKGKRGKRAKDTSSEEVNLSHIVPCEPVPEEKPKELPEWSEKVAHNILSGASWVSWGLVKGAEITGKAIQKGASKLRERIQPEEKPVEVSPAVTKGLYIAKQATGGAAKVSQFLVDGVCTVANCVGKELAPHVKKHGSKLVPESLKKDKDGKSPLDGAMVVAASSVQGFSTVWQGLECAAKCIVNNVSAETVQTVRYKYGYNAGEATHHAVDSAVNVGVTAYNINNIGIKAMVKKTATQTGHTLLEDYQIVDNSQRENQEGAANVNVRGEKDEQTKEVKEAKKKDK
B1: the binding result was “binds”.
